The list shows a part of the results.
Biological target: T1, PUM1 PUF domain R6-SWD R7-NPG N1043S + Y1044W + Q1047D + S1079N + N1080P + E1083G (Homo sapiens) (UniProt Q14671)
T1 sequence: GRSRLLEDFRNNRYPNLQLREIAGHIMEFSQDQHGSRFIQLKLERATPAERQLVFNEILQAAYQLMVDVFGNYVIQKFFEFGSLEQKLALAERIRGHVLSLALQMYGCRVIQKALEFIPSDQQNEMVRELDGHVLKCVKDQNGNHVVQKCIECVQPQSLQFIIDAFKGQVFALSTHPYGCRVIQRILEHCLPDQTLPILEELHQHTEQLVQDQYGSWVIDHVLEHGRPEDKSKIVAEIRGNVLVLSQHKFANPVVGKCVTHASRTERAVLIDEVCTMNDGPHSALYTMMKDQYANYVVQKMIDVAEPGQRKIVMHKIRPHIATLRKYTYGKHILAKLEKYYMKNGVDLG
Conditions: yeast three-hybrid, YBZ-1, SC-Leu-His + 0.5 mM 3-AT, 4 days

| Sequence | binding signal (log2 enrichment (interaction score)) |
| --- | --- |
| GGCUAGAACUAGUGGAUCCCCCGGCGCCCGGCGGCUCGAGCCCGGGUAAGUGGACGUAGUCUGCAUGCCGCCGGGCGCCAUGCCUGCAGGUCGACUCUAGAAAACAUG | -0.78 |
| GGCUAGAACUAGUGGAUCCCCCGGCGCCCGGCGGCUCGAGCCCGGGUAAGUUGACGUAGUCUGCAUGCCGCCGGGCGCCAUGCCUGCAGGUCGACUCUAGAAAACAUG | -0.93 |
| GGCUAGAACUAGUGGAUCCCCCGGCGCCCGGCGGCUCGAGCCCGGGUAAGUUGACGACGUCUGCAUGCCGCCGGGCGCCAUGCCUGCAGGUCGACUCUAGAAAACAUG | -0.82 |
| GGCUAGAACUAGUGGAUCCCCCGGCGCCCGGCGGCUCGAGCCCGGGUAAGUGUACGACGUCUGCAUGCCGCCGGGCGCCAUGCCUGCAGGUCGACUCUAGAAAACAUG | -0.84 |
| GGCUAGAACUAGUGGAUCCCCCGGCGCCCGGCGGCUCGAGCCCGGGUAAGUGGAAAUAGUCUGCAUGCCGCCGGGCGCCAUGCCUGCAGGUCGACUCUAGAAAACAUG | -0.48 |
| GGCUAGAACUAGUGGAUCCCCCGGCGCCCGGCGGCUCGAGCCCGGGUAAGUGAAAAUAGUCUGCAUGCCGCCGGGCGCCAUGCCUGCAGGUCGACUCUAGAAAACAUG | -0.67 |
| GGCUAGAACUAGUGGAUCCCCCGGCGCCCGGCGGCUCGAGCCCGGGUAAGUGGACAUCGUCUGCAUGCCGCCGGGCGCCAUGCCUGCAGGUCGACUCUAGAAAACAUG | -0.73 |
| GGCUAGAACUAGUGGAUCCCCCGGCGCCCGGCGGCUCGAGCCCGGGUAAGUUGAAGUAGUCUGCAUGCCGCCGGGCGCCAUGCCUGCAGGUCGACUCUAGAAAACAUG | -1.42 |
| GGCUAGAACUAGUGGAUCCCCCGGCGCCCGGCGGCUCGAGCCCGGGUAAGAUGAAAUCGUCUGCAUGCCGCCGGGCGCCAUGCCUGCAGGUCGACUCUAGAAAACAUG | -1.32 |
